# In the supplement of paper PMC12823440, “Inhibitors supercharge kinase turnover through native proteolytic circuits” (Nature, 2025):
# Sequences of proteins named here, by UniProt entry; tags and fusion partners are left off. A change or cut given only in a name is not applied to a line headed by its entry.
# UniProt Q9Y616: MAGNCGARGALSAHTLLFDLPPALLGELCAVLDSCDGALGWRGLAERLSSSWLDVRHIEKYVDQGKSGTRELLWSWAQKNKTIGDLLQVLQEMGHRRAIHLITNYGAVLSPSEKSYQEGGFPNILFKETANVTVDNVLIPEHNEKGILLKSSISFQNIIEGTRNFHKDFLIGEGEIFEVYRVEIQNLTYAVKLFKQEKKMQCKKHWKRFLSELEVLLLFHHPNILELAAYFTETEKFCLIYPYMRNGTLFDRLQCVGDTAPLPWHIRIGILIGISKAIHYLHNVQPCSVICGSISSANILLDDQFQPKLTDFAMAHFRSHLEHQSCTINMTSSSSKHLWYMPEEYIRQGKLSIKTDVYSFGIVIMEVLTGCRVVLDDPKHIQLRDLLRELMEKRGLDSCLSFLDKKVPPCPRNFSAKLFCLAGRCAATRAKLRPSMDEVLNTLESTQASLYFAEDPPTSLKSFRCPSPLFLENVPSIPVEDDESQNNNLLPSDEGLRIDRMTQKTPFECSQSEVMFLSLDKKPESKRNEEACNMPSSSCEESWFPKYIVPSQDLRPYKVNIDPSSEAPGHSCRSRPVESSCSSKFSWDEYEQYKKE
# UniProt P23458: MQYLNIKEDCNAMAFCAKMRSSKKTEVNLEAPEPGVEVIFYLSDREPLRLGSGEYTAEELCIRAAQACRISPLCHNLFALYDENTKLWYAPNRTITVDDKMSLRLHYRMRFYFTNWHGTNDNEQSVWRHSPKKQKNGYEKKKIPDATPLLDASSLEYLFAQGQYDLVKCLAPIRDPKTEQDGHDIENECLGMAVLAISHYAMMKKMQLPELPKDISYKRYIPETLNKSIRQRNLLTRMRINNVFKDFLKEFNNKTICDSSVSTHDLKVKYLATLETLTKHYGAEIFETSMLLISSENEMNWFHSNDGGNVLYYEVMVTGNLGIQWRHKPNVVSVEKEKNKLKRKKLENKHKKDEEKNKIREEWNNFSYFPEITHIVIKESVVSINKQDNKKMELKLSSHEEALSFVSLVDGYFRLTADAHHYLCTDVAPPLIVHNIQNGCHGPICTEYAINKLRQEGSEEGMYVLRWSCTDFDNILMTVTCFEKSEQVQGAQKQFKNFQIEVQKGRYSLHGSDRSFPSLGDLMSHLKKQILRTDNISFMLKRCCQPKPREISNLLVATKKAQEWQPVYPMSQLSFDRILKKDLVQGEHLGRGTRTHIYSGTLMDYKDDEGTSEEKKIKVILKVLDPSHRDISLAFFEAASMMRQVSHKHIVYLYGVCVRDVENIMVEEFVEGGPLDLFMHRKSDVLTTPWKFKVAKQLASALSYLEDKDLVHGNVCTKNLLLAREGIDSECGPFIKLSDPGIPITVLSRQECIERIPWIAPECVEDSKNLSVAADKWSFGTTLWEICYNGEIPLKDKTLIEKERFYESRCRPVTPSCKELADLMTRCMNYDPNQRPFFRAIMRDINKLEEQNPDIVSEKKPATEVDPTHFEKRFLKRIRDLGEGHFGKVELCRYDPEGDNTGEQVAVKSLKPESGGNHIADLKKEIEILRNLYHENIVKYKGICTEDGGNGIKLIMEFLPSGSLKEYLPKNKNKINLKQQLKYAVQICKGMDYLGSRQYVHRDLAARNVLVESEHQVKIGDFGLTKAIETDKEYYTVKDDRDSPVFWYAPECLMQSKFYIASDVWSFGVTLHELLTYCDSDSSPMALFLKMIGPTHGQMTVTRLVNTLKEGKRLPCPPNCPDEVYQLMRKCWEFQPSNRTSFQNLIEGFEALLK
# UniProt P06239: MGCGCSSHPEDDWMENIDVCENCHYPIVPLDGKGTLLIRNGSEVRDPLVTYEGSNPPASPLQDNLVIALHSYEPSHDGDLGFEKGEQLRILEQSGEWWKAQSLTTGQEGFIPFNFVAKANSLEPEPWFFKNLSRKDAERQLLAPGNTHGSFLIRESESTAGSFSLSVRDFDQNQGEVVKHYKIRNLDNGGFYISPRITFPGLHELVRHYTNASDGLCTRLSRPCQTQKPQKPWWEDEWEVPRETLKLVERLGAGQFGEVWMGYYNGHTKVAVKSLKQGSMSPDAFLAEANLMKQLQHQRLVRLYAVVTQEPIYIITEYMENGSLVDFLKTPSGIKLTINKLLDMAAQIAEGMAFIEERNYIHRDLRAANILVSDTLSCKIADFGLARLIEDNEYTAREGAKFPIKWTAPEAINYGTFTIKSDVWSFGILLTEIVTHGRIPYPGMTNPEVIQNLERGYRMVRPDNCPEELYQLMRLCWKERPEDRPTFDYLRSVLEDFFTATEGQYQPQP
# UniProt P53667: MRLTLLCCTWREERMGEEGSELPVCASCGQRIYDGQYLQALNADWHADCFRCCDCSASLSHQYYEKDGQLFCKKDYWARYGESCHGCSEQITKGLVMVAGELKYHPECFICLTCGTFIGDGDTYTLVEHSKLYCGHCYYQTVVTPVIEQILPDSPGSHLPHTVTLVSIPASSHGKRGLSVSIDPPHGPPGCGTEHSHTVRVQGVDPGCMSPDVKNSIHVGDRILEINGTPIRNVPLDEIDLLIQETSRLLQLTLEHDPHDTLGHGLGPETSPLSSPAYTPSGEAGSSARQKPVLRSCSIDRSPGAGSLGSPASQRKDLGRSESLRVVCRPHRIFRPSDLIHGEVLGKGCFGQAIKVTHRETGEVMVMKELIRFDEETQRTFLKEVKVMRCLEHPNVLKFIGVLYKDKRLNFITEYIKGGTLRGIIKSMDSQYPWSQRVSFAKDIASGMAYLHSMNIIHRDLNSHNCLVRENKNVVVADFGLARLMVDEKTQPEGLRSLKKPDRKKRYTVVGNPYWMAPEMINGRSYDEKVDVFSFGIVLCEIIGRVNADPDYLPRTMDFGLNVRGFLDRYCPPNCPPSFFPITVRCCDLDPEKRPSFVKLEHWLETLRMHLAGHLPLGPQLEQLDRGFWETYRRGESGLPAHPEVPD
# UniProt P53671: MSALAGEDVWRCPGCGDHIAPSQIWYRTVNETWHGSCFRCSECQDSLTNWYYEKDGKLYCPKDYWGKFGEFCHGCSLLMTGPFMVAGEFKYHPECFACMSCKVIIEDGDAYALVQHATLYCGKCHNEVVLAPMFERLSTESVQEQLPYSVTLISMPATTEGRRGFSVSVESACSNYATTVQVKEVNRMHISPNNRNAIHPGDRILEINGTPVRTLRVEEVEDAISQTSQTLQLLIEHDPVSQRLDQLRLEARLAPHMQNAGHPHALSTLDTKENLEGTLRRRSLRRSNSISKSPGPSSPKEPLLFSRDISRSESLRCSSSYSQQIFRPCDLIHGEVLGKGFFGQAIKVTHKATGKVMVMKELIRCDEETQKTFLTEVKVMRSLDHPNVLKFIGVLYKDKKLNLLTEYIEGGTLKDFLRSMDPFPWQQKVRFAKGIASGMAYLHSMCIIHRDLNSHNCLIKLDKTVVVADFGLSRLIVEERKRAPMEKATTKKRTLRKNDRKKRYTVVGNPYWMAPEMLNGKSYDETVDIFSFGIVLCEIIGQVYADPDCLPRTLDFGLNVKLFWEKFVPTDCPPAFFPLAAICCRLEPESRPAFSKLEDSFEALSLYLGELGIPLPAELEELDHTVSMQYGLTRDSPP
# UniProt Q8IWU2: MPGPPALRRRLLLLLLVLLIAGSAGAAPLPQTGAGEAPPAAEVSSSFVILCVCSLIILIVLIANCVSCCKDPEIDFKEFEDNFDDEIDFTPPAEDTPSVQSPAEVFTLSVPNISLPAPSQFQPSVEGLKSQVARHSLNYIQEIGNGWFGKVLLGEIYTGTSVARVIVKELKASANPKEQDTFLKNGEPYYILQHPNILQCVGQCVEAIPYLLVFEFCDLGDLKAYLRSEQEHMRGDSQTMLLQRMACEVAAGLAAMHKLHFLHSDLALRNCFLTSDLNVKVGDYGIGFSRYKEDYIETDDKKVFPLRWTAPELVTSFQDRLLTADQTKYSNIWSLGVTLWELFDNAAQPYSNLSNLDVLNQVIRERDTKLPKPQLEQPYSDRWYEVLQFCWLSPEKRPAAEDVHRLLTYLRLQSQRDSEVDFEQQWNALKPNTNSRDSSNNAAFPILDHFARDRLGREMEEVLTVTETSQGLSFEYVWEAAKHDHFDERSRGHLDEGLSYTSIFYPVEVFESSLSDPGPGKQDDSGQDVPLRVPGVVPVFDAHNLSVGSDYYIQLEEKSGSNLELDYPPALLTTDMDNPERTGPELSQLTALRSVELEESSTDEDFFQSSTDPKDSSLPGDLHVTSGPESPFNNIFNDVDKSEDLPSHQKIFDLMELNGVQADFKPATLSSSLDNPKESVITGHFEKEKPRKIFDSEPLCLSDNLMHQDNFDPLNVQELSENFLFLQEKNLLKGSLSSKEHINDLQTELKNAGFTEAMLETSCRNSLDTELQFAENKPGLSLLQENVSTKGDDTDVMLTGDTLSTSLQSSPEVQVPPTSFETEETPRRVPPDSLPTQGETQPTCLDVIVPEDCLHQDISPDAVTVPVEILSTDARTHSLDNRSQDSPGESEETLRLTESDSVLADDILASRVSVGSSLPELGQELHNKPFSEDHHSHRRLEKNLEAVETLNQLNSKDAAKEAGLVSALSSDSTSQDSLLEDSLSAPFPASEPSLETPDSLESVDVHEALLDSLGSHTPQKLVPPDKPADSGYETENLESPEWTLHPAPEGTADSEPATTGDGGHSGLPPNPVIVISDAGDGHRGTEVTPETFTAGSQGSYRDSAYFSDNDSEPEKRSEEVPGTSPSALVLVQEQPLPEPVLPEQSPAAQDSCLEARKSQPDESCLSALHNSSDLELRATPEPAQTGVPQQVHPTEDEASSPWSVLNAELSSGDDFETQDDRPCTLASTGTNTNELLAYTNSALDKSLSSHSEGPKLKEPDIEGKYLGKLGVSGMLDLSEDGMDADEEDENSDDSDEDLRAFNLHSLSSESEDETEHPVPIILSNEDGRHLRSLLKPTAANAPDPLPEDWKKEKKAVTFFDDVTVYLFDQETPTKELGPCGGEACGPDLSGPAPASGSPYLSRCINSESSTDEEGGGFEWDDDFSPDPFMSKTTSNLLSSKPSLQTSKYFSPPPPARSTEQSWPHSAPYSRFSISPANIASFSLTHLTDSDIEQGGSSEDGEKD
# UniProt P07948: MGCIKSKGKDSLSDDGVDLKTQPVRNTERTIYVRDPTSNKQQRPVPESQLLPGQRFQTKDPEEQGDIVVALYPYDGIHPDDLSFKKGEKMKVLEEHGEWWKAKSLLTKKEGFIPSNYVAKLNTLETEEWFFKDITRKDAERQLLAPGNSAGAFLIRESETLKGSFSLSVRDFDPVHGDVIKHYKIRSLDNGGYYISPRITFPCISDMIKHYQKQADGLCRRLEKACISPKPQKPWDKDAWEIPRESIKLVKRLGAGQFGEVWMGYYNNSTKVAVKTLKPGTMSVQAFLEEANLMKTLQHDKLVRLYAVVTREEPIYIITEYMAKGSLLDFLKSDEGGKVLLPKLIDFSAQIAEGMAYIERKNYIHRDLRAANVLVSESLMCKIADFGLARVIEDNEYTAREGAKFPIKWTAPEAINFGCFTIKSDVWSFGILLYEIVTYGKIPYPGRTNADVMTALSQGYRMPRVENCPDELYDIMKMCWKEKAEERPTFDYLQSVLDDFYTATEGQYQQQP
# UniProt Q12851: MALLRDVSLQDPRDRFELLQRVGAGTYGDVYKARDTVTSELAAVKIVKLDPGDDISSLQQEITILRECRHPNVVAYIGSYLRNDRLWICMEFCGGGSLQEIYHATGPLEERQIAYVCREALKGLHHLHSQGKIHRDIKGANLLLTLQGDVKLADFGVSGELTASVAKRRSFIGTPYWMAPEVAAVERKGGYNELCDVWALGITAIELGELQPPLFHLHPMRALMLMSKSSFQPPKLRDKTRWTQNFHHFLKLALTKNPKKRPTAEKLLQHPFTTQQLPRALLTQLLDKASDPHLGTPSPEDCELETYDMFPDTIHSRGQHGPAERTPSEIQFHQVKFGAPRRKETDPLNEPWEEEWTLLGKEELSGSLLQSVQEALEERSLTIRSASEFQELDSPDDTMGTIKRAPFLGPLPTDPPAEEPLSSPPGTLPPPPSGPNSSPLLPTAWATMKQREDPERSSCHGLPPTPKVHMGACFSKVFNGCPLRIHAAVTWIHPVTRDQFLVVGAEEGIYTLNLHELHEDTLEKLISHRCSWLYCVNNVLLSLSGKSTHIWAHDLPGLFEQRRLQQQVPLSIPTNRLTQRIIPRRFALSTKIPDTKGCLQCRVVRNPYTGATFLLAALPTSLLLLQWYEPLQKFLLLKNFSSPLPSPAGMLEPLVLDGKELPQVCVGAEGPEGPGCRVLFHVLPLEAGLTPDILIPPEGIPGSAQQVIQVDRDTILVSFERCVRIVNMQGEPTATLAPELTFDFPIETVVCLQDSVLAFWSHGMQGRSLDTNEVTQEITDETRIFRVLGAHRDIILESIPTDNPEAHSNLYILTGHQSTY
# Where a name gives a salt, the structure may show the parent alone. The list shows a part of the results. Hit calls seldom repeat between salt and free forms of one compound.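 In K562 cells expressing nanoluciferase-fused kinases, luminescence was recorded at 4 h intervals between 2 and 18 h, normalized as percent of control with DMSO at 100% and a positive control at 0%. A significant (2 sigma) signal drop marks a time point as decreased. The authors' rule for a hit is not shown and takes in more than the number of time points.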
# What was measured:
# Assay in all cases: kinase-Nluc reporter destabilization hit call (1 = scored as downregulated) (binary); higher = compound decreases kinase abundance
# Details in all cases: K562; 2-18 h
# IRAK3 = IRAK3 (UniProt Q9Y616)
# JAK1 = JAK1 (UniProt P23458)
# LCK = LCK (UniProt P06239)
# LIMK1 = LIMK1 (UniProt P53667)
# LIMK2 = LIMK2 (UniProt P53671)
# LMTK2 = LMTK2 (UniProt Q8IWU2)
# LYN = LYN (UniProt P07948)
# MAP2K1 = MAP2K1 (UniProt Q02750)
# MAP2K2 = MAP2K2 (UniProt P36507)
# MAP4K2 = MAP4K2 (UniProt Q12851)
SMILES,kinase-Nluc reporter destabilization hit call (IRAK3),kinase-Nluc reporter destabilization hit call (JAK1),kinase-Nluc reporter destabilization hit call (LCK),kinase-Nluc reporter destabilization hit call (LIMK1),kinase-Nluc reporter destabilization hit call (LIMK2),kinase-Nluc reporter destabilization hit call (LMTK2),kinase-Nluc reporter destabilization hit call (LYN),kinase-Nluc reporter destabilization hit call (MAP2K1),kinase-Nluc reporter destabilization hit call (MAP2K2),kinase-Nluc reporter destabilization hit call (MAP4K2)
CCOC(=O)N1C/C(=C/c2ccccc2F)C(=O)/C(=C\c2ccccc2F)C1 (2.5 µM),inactive: 0,inactive: 0,inactive: 0,inactive: 0,inactive: 0,inactive: 0,inactive: 0,inactive: 0,inactive: 0,inactive: 0
Cc1ncc(NC(=O)NC2c3ccccc3-c3ccccc32)c(-c2ccccc2)n1 (10 µM),inactive: 0,inactive: 0,inactive: 0,inactive: 0,inactive: 0,inactive: 0,inactive: 0,inactive: 0,inactive: 0,inactive: 0
C=CC(=O)N1CCC[C@H](n2c(=O)n(-c3ccc(Oc4ccccc4)cc3)c3c(N)ncnc32)C1 [ONO-4059 (analog)] (10 µM),inactive: 0,inactive: 0,inactive: 0,inactive: 0,inactive: 0,inactive: 0,inactive: 0,inactive: 0,inactive: 0,inactive: 0
Cc1ccc(-c2csc3ncnc(SCCC(=O)O)c23)cc1 (10 µM),inactive: 0,inactive: 0,inactive: 0,inactive: 0,inactive: 0,inactive: 0,inactive: 0,inactive: 0,inactive: 0,inactive: 0
COc1ncccc1-c1cnn2ccc(N3CCN(C(=O)OC(C)C)CC3)nc12 (10 µM),inactive: 0,inactive: 0,inactive: 0,inactive: 0,inactive: 0,inactive: 0,inactive: 0,inactive: 0,inactive: 0,inactive: 0
O=C(O)c1cc(=O)c2c(OCC(O)COc3cccc4oc(C(=O)O)cc(=O)c34)cccc2o1 [Cromolyn (sodium)] (10 µM),inactive: 0,inactive: 0,inactive: 0,inactive: 0,inactive: 0,inactive: 0,inactive: 0,inactive: 0,inactive: 0,inactive: 0
COc1c(Nc2cc(C)[nH]n2)nc(Sc2ccc(S(=O)(=O)Cc3cccc([N+](=O)[O-])c3F)cc2F)nc1N1CCCCC1 [Centrinone-B] (2.5 µM),inactive: 0,inactive: 0,inactive: 0,inactive: 0,inactive: 0,inactive: 0,inactive: 0,inactive: 0,inactive: 0,inactive: 0
CN(C)S(=O)(=O)c1ccc2c(c1)/C(=C/c1cc3c([nH]1)CCCC3)C(=O)N2 (2.5 µM),inactive: 0,inactive: 0,active: 1,inactive: 0,inactive: 0,inactive: 0,inactive: 0,inactive: 0,inactive: 0,inactive: 0
CCN(CC)c1ccc2cc(-c3nc4cc(C)ccc4o3)c(=O)oc2c1 (10 µM),inactive: 0,inactive: 0,inactive: 0,inactive: 0,inactive: 0,inactive: 0,inactive: 0,inactive: 0,inactive: 0,inactive: 0
O[C@@H]1CO[C@H]2[C@@H]1OC[C@H]2Oc1nc2nc(-c3ccc(-c4ccccc4)cc3)c(Cl)cc2[nH]1 (10 µM),inactive: 0,inactive: 0,inactive: 0,inactive: 0,inactive: 0,inactive: 0,inactive: 0,inactive: 0,inactive: 0,inactive: 0
C[C@@H]1COCCN1c1nc(-c2cnc(N)cc2C(F)F)nc(N2[C@H](C)COC[C@@H]2C)n1 (2.5 µM),inactive: 0,inactive: 0,inactive: 0,inactive: 0,inactive: 0,inactive: 0,inactive: 0,inactive: 0,inactive: 0,inactive: 0
Cc1ccc(C(=O)Nc2sc(Nc3ccccc3)nc2C(N)=O)cc1 (10 µM),inactive: 0,inactive: 0,inactive: 0,inactive: 0,inactive: 0,inactive: 0,inactive: 0,inactive: 0,inactive: 0,inactive: 0
CC(C)C[C@@H](C(=O)Nc1ccn(C[C@@H](O)CO)n1)N1CC(Oc2ccccc2Cl)=CC1=O [Dorzagliatin] (10 µM),inactive: 0,inactive: 0,inactive: 0,inactive: 0,inactive: 0,inactive: 0,inactive: 0,inactive: 0,inactive: 0,inactive: 0
O=C(CNc1cccc(Cl)c1)NC1CCCN(c2ncnc3[nH]ccc23)C1 (stereo not given) (10 µM),inactive: 0,inactive: 0,inactive: 0,inactive: 0,inactive: 0,inactive: 0,inactive: 0,inactive: 0,inactive: 0,inactive: 0
COc1cc2ncnc(Nc3ccc(F)c(Cl)c3)c2cc1NC(=O)/C=C/CN1CCCCC1 [Dacomitinib] (10 µM),inactive: 0,inactive: 0,inactive: 0,inactive: 0,inactive: 0,inactive: 0,inactive: 0,inactive: 0,inactive: 0,inactive: 0
Cc1nc(-c2cnn(C)c2)nc2c1[nH]c1ncc(-c3ccc(N4CCN(C)CC4)cc3)cc12 [GNE 220 (hydrochloride)] (10 µM),inactive: 0,inactive: 0,inactive: 0,inactive: 0,inactive: 0,inactive: 0,inactive: 0,inactive: 0,inactive: 0,inactive: 0
O=c1cc(-c2cccc3c2Sc2ccccc2S3)oc(N2CCOCC2)c1 (10 µM),inactive: 0,inactive: 0,inactive: 0,inactive: 0,inactive: 0,inactive: 0,inactive: 0,inactive: 0,inactive: 0,inactive: 0
c1ccc(-c2nc(=NCCN3CCOCC3)sn2-c2ccccc2)cc1 [VP3.15 (dihydrobromide)] (10 µM),inactive: 0,inactive: 0,inactive: 0,inactive: 0,inactive: 0,inactive: 0,inactive: 0,inactive: 0,inactive: 0,inactive: 0
COc1ccc(/C=C/C(=O)C2(C(=O)/C=C/c3ccc(OC)c(OC)c3)CCCCC2)cc1OC (2.5 µM),inactive: 0,inactive: 0,inactive: 0,inactive: 0,inactive: 0,inactive: 0,inactive: 0,inactive: 0,inactive: 0,inactive: 0
Cc1cc2sc(NC(=O)Cc3ccccc3)nc2cc1Cl (10 µM),inactive: 0,inactive: 0,inactive: 0,inactive: 0,inactive: 0,inactive: 0,inactive: 0,inactive: 0,inactive: 0,inactive: 0
Oc1ccc(/C=C/c2cc(O)cc(F)c2)cc1 [Resveratrol analog 1] (10 µM),inactive: 0,inactive: 0,inactive: 0,inactive: 0,inactive: 0,inactive: 0,inactive: 0,inactive: 0,inactive: 0,inactive: 0
Cc1cc(-c2ccnc(Nc3cnn(C)c3)n2)ccc1CNC(=O)N1CC(OC(C)C)C1 (10 µM),inactive: 0,inactive: 0,inactive: 0,inactive: 0,inactive: 0,inactive: 0,inactive: 0,inactive: 0,inactive: 0,inactive: 0
COc1cc(N2CCOCC2)ccc1NC(=O)c1csc(-c2cccnc2)n1 [IRAK inhibitor 6] (10 µM),inactive: 0,inactive: 0,inactive: 0,inactive: 0,inactive: 0,inactive: 0,inactive: 0,inactive: 0,inactive: 0,inactive: 0
COc1ccc(-c2coc3cc(O)ccc3c2=O)cc1 [Formononetin] (10 µM),inactive: 0,inactive: 0,inactive: 0,inactive: 0,inactive: 0,inactive: 0,inactive: 0,inactive: 0,inactive: 0,inactive: 0
c1cc(NC2CCNCC2)nc(-c2cnc3ccccn23)c1 [IRAK inhibitor 1] (10 µM),inactive: 0,inactive: 0,inactive: 0,inactive: 0,inactive: 0,inactive: 0,inactive: 0,inactive: 0,inactive: 0,inactive: 0
COc1cc2ncnc(Nc3ccccc3)c2cc1OC (10 µM),inactive: 0,inactive: 0,inactive: 0,inactive: 0,inactive: 0,inactive: 0,inactive: 0,inactive: 0,inactive: 0,inactive: 0
CC(C)S(=O)(=O)c1ccc2nccc(Nc3ccc4scnc4c3)c2c1 (10 µM),inactive: 0,inactive: 0,inactive: 0,inactive: 0,inactive: 0,inactive: 0,inactive: 0,inactive: 0,inactive: 0,inactive: 0
COc1cc(N2CCOCC2)ccc1Nc1ncc(Cl)c(Nc2ccccc2NS(C)(=O)=O)n1 (2.5 µM),inactive: 0,inactive: 0,inactive: 0,inactive: 0,inactive: 0,inactive: 0,inactive: 0,inactive: 0,inactive: 0,inactive: 0
COc1ccc2cc3[n+](cc2c1OC)CCc1cc(O)c(O)cc1-3 [Demethyleneberberine] (10 µM),inactive: 0,inactive: 0,inactive: 0,inactive: 0,inactive: 0,inactive: 0,inactive: 0,inactive: 0,inactive: 0,inactive: 0

# Part of the list above with just kinase-Nluc reporter destabilization hit call (MAP2K1), kinase-Nluc reporter destabilization hit call (JAK1) and kinase-Nluc reporter destabilization hit call (IRAK3).
SMILES	kinase-Nluc reporter destabilization hit call (MAP2K1)	kinase-Nluc reporter destabilization hit call (JAK1)	kinase-Nluc reporter destabilization hit call (IRAK3)
COc1c(Nc2cc(C)[nH]n2)nc(Sc2ccc(S(=O)(=O)Cc3cccc([N+](=O)[O-])c3F)cc2F)nc1N1CCCCC1 [Centrinone-B] (2.5 µM)	inactive: 0	inactive: 0	inactive: 0
CN(C)S(=O)(=O)c1ccc2c(c1)/C(=C/c1cc3c([nH]1)CCCC3)C(=O)N2 (2.5 µM)	inactive: 0	inactive: 0	inactive: 0
